From publication doi:10.1101/2024.02.27.582283

The chains behind the UniProt entries cited, without tags or fusion partners. Where a name states a change or a piece, a line headed by the entry shows the natural chain unless it says otherwise.
UniProt Q9U263: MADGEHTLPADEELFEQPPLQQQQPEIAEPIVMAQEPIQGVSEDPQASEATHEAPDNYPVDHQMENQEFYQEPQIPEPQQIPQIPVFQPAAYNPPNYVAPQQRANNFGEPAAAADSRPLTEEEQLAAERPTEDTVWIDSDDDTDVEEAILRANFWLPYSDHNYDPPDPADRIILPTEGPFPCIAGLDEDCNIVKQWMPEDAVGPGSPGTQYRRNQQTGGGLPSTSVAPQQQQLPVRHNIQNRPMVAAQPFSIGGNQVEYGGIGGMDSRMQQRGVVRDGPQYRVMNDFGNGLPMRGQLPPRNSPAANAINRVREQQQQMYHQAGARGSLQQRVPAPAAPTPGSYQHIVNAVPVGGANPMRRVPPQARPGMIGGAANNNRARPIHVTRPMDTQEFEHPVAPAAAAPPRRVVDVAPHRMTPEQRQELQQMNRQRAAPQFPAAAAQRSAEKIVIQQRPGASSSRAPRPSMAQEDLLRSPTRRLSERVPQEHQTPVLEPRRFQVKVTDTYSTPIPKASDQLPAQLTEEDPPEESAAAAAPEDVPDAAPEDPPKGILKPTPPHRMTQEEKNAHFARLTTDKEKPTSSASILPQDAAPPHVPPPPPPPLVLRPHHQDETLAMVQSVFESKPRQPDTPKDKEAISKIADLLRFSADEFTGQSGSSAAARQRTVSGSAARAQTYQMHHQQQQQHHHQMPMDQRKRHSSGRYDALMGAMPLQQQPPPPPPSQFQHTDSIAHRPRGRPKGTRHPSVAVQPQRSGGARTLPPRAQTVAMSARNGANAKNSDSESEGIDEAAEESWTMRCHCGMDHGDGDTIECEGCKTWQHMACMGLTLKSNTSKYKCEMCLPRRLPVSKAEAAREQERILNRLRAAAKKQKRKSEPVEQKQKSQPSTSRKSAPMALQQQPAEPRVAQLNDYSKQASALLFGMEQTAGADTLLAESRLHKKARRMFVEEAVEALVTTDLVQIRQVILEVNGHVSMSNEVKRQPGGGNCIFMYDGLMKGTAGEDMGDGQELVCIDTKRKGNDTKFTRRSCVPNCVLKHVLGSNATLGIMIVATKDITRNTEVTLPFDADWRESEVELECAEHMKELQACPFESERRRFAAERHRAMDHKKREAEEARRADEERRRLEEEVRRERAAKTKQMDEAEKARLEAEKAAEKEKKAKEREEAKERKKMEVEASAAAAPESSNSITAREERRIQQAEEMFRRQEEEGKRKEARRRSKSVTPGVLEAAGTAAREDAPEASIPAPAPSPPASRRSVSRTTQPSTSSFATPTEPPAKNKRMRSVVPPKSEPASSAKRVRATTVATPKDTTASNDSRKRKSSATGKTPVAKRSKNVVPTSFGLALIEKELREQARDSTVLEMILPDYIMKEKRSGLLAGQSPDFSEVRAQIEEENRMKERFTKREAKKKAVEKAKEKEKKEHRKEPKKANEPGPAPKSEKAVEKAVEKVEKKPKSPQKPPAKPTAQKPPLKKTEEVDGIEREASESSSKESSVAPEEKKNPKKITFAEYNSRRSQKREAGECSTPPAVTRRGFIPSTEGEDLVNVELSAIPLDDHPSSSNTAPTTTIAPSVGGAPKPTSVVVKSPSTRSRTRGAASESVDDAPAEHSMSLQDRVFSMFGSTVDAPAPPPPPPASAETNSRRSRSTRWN
UniProt Q9BL48: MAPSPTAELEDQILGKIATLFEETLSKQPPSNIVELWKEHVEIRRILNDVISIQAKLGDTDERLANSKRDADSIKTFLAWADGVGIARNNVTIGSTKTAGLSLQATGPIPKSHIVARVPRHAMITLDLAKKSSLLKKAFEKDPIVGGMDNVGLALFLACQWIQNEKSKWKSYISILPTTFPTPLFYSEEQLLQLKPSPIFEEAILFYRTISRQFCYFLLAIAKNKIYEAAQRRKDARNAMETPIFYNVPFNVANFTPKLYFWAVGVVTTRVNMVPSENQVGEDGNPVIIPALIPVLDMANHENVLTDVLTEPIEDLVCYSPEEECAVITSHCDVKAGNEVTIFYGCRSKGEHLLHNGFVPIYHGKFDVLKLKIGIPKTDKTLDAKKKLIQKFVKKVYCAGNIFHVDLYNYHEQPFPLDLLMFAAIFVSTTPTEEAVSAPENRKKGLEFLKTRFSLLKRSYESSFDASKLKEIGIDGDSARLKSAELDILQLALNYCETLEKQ

Molecular target: SET-26::GFP (WT background) (C. elegans) (UniProt Q9U263)
Assay: affinity purification with mass spectrometry

Question: For “SET-27 (predicted methyltransferase) (from UniProt Q9BL48)”, which binding is on record?
Answer: The binding was “binds”.

Results are given in words; binding and its absence hold for the method and conditions named. Binding seen in cells or lysates may run through a third protein. A yes stands for co-enrichment or nearness to the bait. Other partners may have been found.
